Measured values as given in article PMC3781837.

Sequences of proteins named here, by UniProt entry; tags and fusion partners are left off. A change or cut given only in a name is not applied to a line headed by its entry.
UniProt F2RGQ4: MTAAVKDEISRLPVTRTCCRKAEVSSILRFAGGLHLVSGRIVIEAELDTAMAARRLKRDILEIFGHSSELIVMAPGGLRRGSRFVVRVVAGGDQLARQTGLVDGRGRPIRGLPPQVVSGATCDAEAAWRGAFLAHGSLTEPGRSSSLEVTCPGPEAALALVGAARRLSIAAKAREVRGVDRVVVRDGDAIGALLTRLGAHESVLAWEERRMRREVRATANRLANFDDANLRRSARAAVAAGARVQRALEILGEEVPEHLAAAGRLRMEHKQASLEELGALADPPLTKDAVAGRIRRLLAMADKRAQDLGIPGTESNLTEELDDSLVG

Target: WhiA (Streptomyces venezuelae) (UniProt F2RGQ4)
Test: DNase I footprinting
Settings: DNase I footprinting per Sure Track kit (Amersham); recombinant protein; protein details: N-terminal His tag; label: 5' end label (radiolabel); probe letters rebuilt from the primers and the genome

Question: Does “GGATGCATGCCTGCGCACCCTTGACAGAGGGGTGTTCGGTTGCCGACACATCGGGCCGGGTCCGGCGGATTGTGTTGCTGCGGAGCGGTGACACGCCATAGAGTCGCCAACCGTCGGCATGGTGCCACGCTGACCTATCGATAAATGTTCCTGGTGACATCCAAGGAGGTAAGACGAC (double strand) [sven1406 promoter probe]” bind?
Answer: binds

The exact form of at least one protein or probe is not confirmed.
